# Results deposited as PubChem BioAssay AID504784 (Drosophila RNAi Screening Center, 2011).
# Aim: 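Search for regulators of lipid droplet storage in oleate-fed fly cells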 (primary screen)
# Cell system: Drosophila Kc167 embryonic cells
# Reagents: long dsRNA against Drosophila genes, about 250 ng dsRNA per well
# Timing: 4 days
# Treatment: cells fed 400 µM oleic acid bound to BSA
# Measured: 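Cells imaged and segmented; ratio of lipid droplet area to nuclear area, log-transformed, then normalised as a B-score over the screen; higher means more stored lipid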
# Direction: droplet/nuclear area B-score: higher = more stored lipid (overstorage)
# In all, the deposit lists about 17,000 reagents; this is an unselected part of those that have a named target and a result. 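Each column is one replicate's B-score; the combined score over replicates was not deposited, so single values may mislead.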 Names joined by + are all predicted targets of the reagent. Reagent sequences are not shown.
target,dsRNA,"droplet/nuclear area B-score, replicate 1","droplet/nuclear area B-score, replicate 2","droplet/nuclear area B-score, replicate 3"
CG31730,DRSC01308,0.468,0.796,
mi (minus),DRSC04498,-1.74,0.317,
CG30411,DRSC04004,2.23,0.877,
Eip78C (Ecdysone-induced protein 78C),DRSC11864,1.14,2.82,
Eip78C (Ecdysone-induced protein 78C),DRSC23097,-0.169,-0.178,
CG13958 (retired record),DRSC02300,-0.475,-0.3,
lncRNA:sphinx (long non-coding RNA:sphinx),DRSC17199,2.4,1.11,
Diap2 (Death-associated inhibitor of apoptosis 2),DRSC07444,-0.886,1.2,
CG1304,DRSC20494,2.02,-1.34,
CG14100,DRSC10101,0.486,1.34,
CG33464 (retired record),DRSC22936,-1.08,-0.161,
BckdhA (Branched chain keto acid dehydrogenase E1 subunit alpha),DRSC16395,0.014,-0.267,
CG14006,DRSC02338,0.229,-1.89,
CG17359,DRSC10265,0.541,0.659,
CG9581,DRSC20695,-2.57,-1.82,-0.382
CG9581,DRSC22247,0.00155,-0.682,
Grip84 (Gamma-tubulin ring protein 84),DRSC20248,-1.07,0.185,
TMEM216 + CG11760,DRSC14375,11,0.553,
Gr10b (Gustatory receptor 10b),DRSC19477,0.774,0.352,0.465
CR31427 (pseudo),DRSC22675,-0.0663,1.38,
Tip60 (Tat interactive protein 60kDa),DRSC18661,1.48,,
Or2a (Odorant receptor 2a),DRSC18690,-0.259,-3.56,
CG5958,DRSC02915,2.01,0.15,
Drsl5 (Drosomycin-like 5),DRSC08159,0.189,-0.0602,
Acadvl (Acyl-CoA dehydrogenase very long chain),DRSC07022,-0.0144,-0.961,
Ugt35A1 (UDP-glycosyltransferase family 35 member A1),DRSC16892,-0.0591,9.03,
Osbp (Oxysterol binding protein),DRSC16779,1.93,-0.138,
Cpr65Av (Cuticular protein 65Av),DRSC09727,0.261,1.45,
Fbxl7 (F-box and leucine-rich repeat protein 7),DRSC15553,1.96,0.959,
CG11693,DRSC14353,-1.98,-0.0567,
Atg10 + CG18853 + CG12822,DRSC20757,-0.428,1.46,
PK1-R (Pyrokinin 1 receptor),DRSC16577,-0.414,0.174,
Vps8 (Vacuolar protein sorting 8),DRSC09705,-2.21,1.06,
CG31922,DRSC21703,1.72,-0.42,
Irk3 (Inwardly rectifying potassium channel 3),DRSC02047,-0.687,2.11,
sqa (spaghetti-squash activator),DRSC06693,0.263,1.54,
sqa (spaghetti-squash activator),DRSC21635,-0.755,0.357,
al (aristaless),DRSC00799,-0.572,-0.0534,0.229
Polr1F (RNA polymerase I subunit F),DRSC02278,1.49,-0.428,
srw (shrew),DRSC08201,-0.14,1.17,
CG13198,DRSC06323,0.543,0.758,
CG17744,DRSC10286,-1.32,-0.75,
Caper,DRSC02137,0.279,-3.33,
Nmt (N-myristoyl transferase),DRSC11236,-1.05,1.19,
Scgbeta (Sarcoglycan beta),DRSC15854,0.847,-0.162,
hth (homothorax),DRSC16967,-0.535,0.374,
CG10597,DRSC19357,-1.13,-0.012,-0.512
CG15891 + CG15892,DRSC18095,2.57,2.3,-3.41
CG15891 + CG15892,DRSC18096,-0.0678,1.01,
Obp46a (Odorant-binding protein 46a),DRSC06220,-0.832,-0.0859,
mtsh (mitoshell),DRSC03070,1.97,1.84,
COX7A (Cytochrome c oxidase subunit 7A),DRSC16514,5.65,4.98,
CG14265,DRSC18591,-1.21,0.179,
CG13398,DRSC02268,1.57,0.754,
sa (spermatocyte arrest),DRSC11649,-0.00649,0.0492,1.24
CG9459,DRSC16496,-1.82,-0.0709,
CG31419,DRSC15771,0.481,0.455,
CG3123,DRSC00570,0.716,-1.19,
lncRNA:CR32657 (long non-coding RNA:CR32657),DRSC19403,-0.922,-2.62,-1.09
CG13540,DRSC04182,-2.08,-3.65,
Arts + Apl,DRSC10349,1.44,1.51,
CG6040,DRSC15954,0.277,-0.824,
CG34428,DRSC10119,-0.969,-1.53,
CG13698,DRSC10047,-2.03,-0.153,-0.716
CG3500,DRSC04379,1.18,-0.638,
dind (diamond),DRSC16294,-0.256,0.873,
Acsf3 (Acyl-CoA synthetase family member 3),DRSC18146,0.936,1.81,
CG12170,DRSC12199,2.28,8.92,-0.809
CG17050 (retired record),DRSC06651,-0.083,-0.575,
CG10949,DRSC02112,-1.76,-0.213,
CG7130,DRSC11797,1.04,-0.0741,
twe (twine),DRSC03628,-1.71,-1.18,
Su(var)2-HP2,DRSC06204,0.171,4.39,
CG7251,DRSC03039,2.75,-1.77,
CG15715,DRSC10216,-0.152,-2.41,
PKD (Protein Kinase D),DRSC16200,0.341,-0.743,
Jon65Ai (Jonah 65Ai),DRSC09731,-0.398,0.287,
CG13653,DRSC14653,0.77,-1.4,
CG3430,DRSC02713,-0.745,0.924,
Cyp6v1 (Cytochrome P450 6v1),DRSC20565,1.91,1.12,
RNF220 (ring finger protein 220),DRSC15652,0.667,-0.235,
PIP4K (Phosphatidylinositol 5-phosphate 4-kinase),DRSC17213,-0.177,-0.445,
EMC5 (ER membrane protein complex subunit 5),DRSC02469,0.0444,0.579,
Obp19a (Odorant-binding protein 19a),DRSC20487,0.181,-1.17,
lgs (legless),DRSC17152,-0.174,,
Idgf2 (Imaginal disc growth factor 2),DRSC03350,-0.412,-1.4,
Oct-TyrR (Octopamine-Tyramine receptor),DRSC11883,1.92,0.0853,
Cpr92F (Cuticular protein 92F),DRSC15819,-1.47,1.07,
CG42542,DRSC15549,-0.438,-1.68,
CG42542,DRSC22264,0.167,1.33,
CG15708,DRSC06579,0.0481,-0.398,
CG17959,DRSC18142,0.874,0.127,
CG31510,DRSC14182,-0.272,-0.00359,
Cpr49Aa (Cuticular protein 49Aa),DRSC07197,0.812,0.888,
sei (seizure),DRSC04713,,-2.17,
scu (scully),DRSC20369,0.564,0.117,
CG5892,DRSC15910,-1.46,-1.68,
CG42232,DRSC15018,-0.664,0.242,
CG42232,DRSC15019,-1.3,2.04,
CG17698,DRSC11907,-0.00614,0.212,
ND-19 (NADH dehydrogenase (ubiquinone) 19 kDa subunit),DRSC04404,1.33,-0.589,-0.287
Lrp4 (LDL receptor related protein 4),DRSC20118,-1.88,0.0272,0.162
Gbeta13F (G protein beta subunit 13F),DRSC20247,-0.633,-1.02,-0.758
nmdyn-D7,DRSC17016,0.844,-0.322,
TwdlM (TweedleM),DRSC15810,-0.718,0.648,

Targets listed so far whose target name begins with N or n:
target,dsRNA,"droplet/nuclear area B-score, replicate 1","droplet/nuclear area B-score, replicate 2","droplet/nuclear area B-score, replicate 3"
Nmt (N-myristoyl transferase),DRSC11236,-1.05,1.19,
ND-19 (NADH dehydrogenase (ubiquinone) 19 kDa subunit),DRSC04404,1.33,-0.589,-0.287
nmdyn-D7,DRSC17016,0.844,-0.322,
